From article PMC13049129
Results are given in words; binding and its absence hold for the method and conditions named. Binding seen in cells or lysates may run through a third protein. Some entries that bind do so weakly or less than the wild type. Where a sequence is shown, tags or fusion partners need not be part of it.

Chains of the proteins cited; added tags and fusions are not shown.
UniProt Q13242: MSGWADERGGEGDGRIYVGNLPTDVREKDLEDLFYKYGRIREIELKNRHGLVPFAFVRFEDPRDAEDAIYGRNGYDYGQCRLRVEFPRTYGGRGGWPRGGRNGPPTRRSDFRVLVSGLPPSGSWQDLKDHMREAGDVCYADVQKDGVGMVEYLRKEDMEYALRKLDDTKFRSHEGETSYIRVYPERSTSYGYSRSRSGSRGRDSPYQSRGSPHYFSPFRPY

Biological target: T1, Flag-tagged zebrafish Endouc (Ec-Flag), expressed in HEK293T cells (zebrafish) (UniProt Q1LUM3)
T1 sequence: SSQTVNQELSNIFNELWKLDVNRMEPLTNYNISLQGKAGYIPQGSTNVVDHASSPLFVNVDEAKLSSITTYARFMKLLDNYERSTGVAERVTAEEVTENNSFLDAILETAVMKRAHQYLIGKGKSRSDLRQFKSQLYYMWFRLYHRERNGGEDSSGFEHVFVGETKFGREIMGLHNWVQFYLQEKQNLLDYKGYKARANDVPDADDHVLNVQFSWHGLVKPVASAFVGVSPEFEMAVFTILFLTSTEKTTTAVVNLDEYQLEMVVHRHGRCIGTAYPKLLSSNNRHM
Assay: co-IP; HEK293T cells transfected 48 h with Flag- and Myc-tagged expression vectors, IP lysis buffer, cleared lysate with anti-Flag beads overnight, 6 washes, elution with 3xFLAG peptide at 4°C, immunoblot

binding: binds
Substance: Myc-tagged human Srsf9 (Srsf9-Myc) (from UniProt Q13242 1-221)
